# The campaign covered roughly 400,000 compounds. About 13,000 (3.2%) were called active. Inconclusive means that the source gave no clear call. Such entries were picked first, then a sample of the others. Calls follow the shape of the dose curve; as a rule, active = well fitted cell-killing curve with a large enough effect; inconclusive = small, poorly fitted or top-dose-only effect, or effect the other way; inactive = flat fitted curve, though single readings scatter. Where the call is inconclusive, the potency comes from a doubtful curve fit.
# Assay: qHTS assay for MDR1-selective chemotherapeutics: Primary screen using the drug-selected MDR subline cells KB-V1; also: nearly all actives have a fitted effect of over 60% in size
# Conditions: KB-V1 MDR cells viability, CellTiter-Glo, 72 h; activity change, negative = cytotoxicity: at 46.1 µM (top of the series)
# Method in brief: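 Cytotoxicity toward P-gp-expressing KB-V1 cells was determined as loss of CellTiter-Glo luminescence after 72 h at 37 degrees C. Compounds were tested in quantitative HTS format across a concentration range, with curves fitted to normalized data.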
# % is scaled to controls: 0 for no effect and ±100 for the full control effect; potency is read from the fitted curve at half-maximal effect.
SMILES,"activity change, negative = cytotoxicity",Potency
CCc1ccc(NS(=O)(=O)c2ccc3[nH]cc(C(=O)NC4CCCC4)c(=O)c3c2)cc1,inactive: 0%,
COc1cc2nc(Cl)nc(N3CCOCC3)c2cc1OC,,"inconclusive: 11.6 µM [cytotoxic, partial curve, poor fit]"
COc1ccc(-n2cc(-c3ccccc3)c3c(SC(C)C(C)=O)ncnc32)cc1 (stereo not drawn),inconclusive: 53.1%,
Cc1ccc(C(=O)N2CCN(S(=O)(=O)N3CCCCC3)CC2)cc1,,"inconclusive: 23.1 µM [cytotoxic, single point]"
CN(Cc1ccccc1)C(=S)Nc1ccc(OC(F)F)cc1,,active: 14.6 µM
Cc1cccc(C)c1NC(=O)CCCSc1nnnn1C,,"inconclusive: 29.1 µM [cytotoxic, single point]"
O=C(c1cc2ccccc2o1)N(Cc1nnc(-c2ccccc2Cl)o1)C1CC1,,"inconclusive: 10.3 µM [cytotoxic, partial curve]"
O=C(COC(=O)Cc1ccsc1)NNC(=O)c1ccccc1,,"inconclusive: 11.6 µM [rising, partial curve, poor fit]"
CCOC(=O)c1sc(NC(=O)C(CC)OC(=O)c2ccco2)nc1C (stereo not drawn),inactive: -20%,
COc1ccc(NC(=O)Nc2ccc3c(c2)CCC3)c(OC)c1,,"inconclusive: 29.1 µM [rising, single point]"
COc1ccc(NC(=O)NN(C(=O)c2ccccc2)C(C)(C)C)cc1,,"inconclusive: 25.9 µM [cytotoxic, partial curve, poor fit]"
Cc1ccc2c(c1)c(C)c(C)n2CC(O)CN1CCCCC1C (stereo not drawn),inconclusive: -11.8%,
CC(C)CC(=O)OC1C(N2CCOCC2)c2c(ccc(/C=C/C(=O)N3CCOCC3)c2O)OC1(C)C (stereo not drawn),,"inconclusive: 8.2 µM [cytotoxic, partial curve]"
COc1ccc(C(=O)c2[nH]c(N)c(C(=O)NCCc3c[nH]c4ccccc34)c2-c2ccc(C(F)(F)F)cc2)cc1,,"inconclusive: 25.9 µM [cytotoxic, single point]"
c1ccc(CNc2nc(NCc3ccccc3)c3ccccc3n2)cc1,,"inconclusive: 20.6 µM [cytotoxic, partial curve, poor fit]"
Clc1ccc(-c2nc3ccncc3[nH]2)cc1,,active: 18.4 µM
Fc1ccc(-c2cc(-c3nc(-c4cccc(Cl)c4)no3)[nH]n2)cc1,inactive: -0.251%,
Cc1cccc(NC(=O)C2CCN(C(=O)[C@@H]3Cc4ccccc4CN3)CC2)c1,inactive: -14.2%,
Cc1ccc(NS(=O)(=O)c2ccc(NC(=O)C3CCCO3)cc2)cc1 (stereo not drawn),,active: 13 µM
N/C(Cc1ccc(Cl)cc1)=N\OC(=O)c1ccc2ccccc2c1,,"inconclusive: 29.1 µM [cytotoxic, single point]"
COC(=O)/C(=C\c1cc(OC)c(OC)c(OC)c1)c1nc2ccccc2[nH]1,,"inconclusive: 18.4 µM [cytotoxic, single point]"
COc1ccc(C)cc1NC(=O)C(Sc1nnc(Nc2cc(C)ccc2OC)s1)c1ccccc1 (stereo not drawn),inactive: 2.06%,
Cc1ccc(S(=O)(=O)N2CC3(O)CN(C(=O)OC(C)C)N(C(=O)OC(C)C)CC3(OC(=O)NCc3ccco3)C2)cc1 (stereo not drawn),inactive: -6.28%,

SMILES,"activity change, negative = cytotoxicity",Potency
O=C(NNC(=S)NC(=O)C12CC3CC(CC(C3)C1)C2)c1ccncc1,,"inconclusive: 23.1 µM [cytotoxic, partial curve, poor fit]"
CCc1ccc(CNC(=O)c2ccc3c(c2)nc2n3CCOC2)cc1,inactive: 0.603%,
Cc1cccc2cc(CN(Cc3ccccc3)C(=O)N(C)C)c(=O)[nH]c12,inactive: -3.01%,
COc1cccc(N(CC(=O)NC2CCCCCC2)S(=O)(=O)c2ccccc2)c1,,"inconclusive: 2.31 µM [cytotoxic, partial curve, poor fit]"
COc1ccccc1CNC(=O)CSc1ncc2c(n1)-c1ccccc1N(Cc1ccc(C)cc1)S2(=O)=O,inactive: 23.4%,
COc1cc(C(=O)NC(=S)NC(C)C)cc(OC)c1OC,,"inconclusive: 23.1 µM [cytotoxic, single point]"
O=C(Nc1ccc(C(F)(F)F)cc1)C1CCCN1S(=O)(=O)c1cccc2cccnc12 (stereo not drawn),,active: 4.61 µM
CCOc1ccc(Nc2oc(/C=C/c3ccc(F)cc3)nc2C#N)cc1,,"inconclusive: 7.31 µM [rising, partial curve, poor fit]"
O=C(c1ccc(S(=O)(=O)c2ccccc2)cc1)N1CCc2ccccc2C1,,active: 18.4 µM
CCOCCCNCc1ccc(OCc2ccccc2Cl)cc1,,"inconclusive: 23.1 µM [cytotoxic, partial curve]"
Cc1oc2c(CN3CCCCC3C)c(O)ccc2c(=O)c1-c1ccc(Br)cc1 (stereo not drawn),,"inconclusive: 29.1 µM [rising, partial curve, poor fit]"
CCCc1ccc2oc(C(=O)N(C)CCn3ccnc3C)c(C)c2c1,,"inconclusive: 16.4 µM [cytotoxic, partial curve, poor fit]"
Cc1onc(-c2ccccc2)c1C(=O)N1CCN(S(=O)(=O)c2ccccc2Br)CC1,,"inconclusive: 8.2 µM [cytotoxic, partial curve]"
CSc1ncccc1C(=O)OCC(=O)N1CCN(C(=O)c2ccco2)CC1,inactive: 13.5%,
Cc1ccc(C)c(NC(=S)N(Cc2ccc(Cl)cc2)Cc2ccc(C(=O)O)cc2)c1,,"inconclusive: 0.0052 µM [cytotoxic, full curve, poor fit]"
COCCn1c(Cc2ccccc2)nnc1SCC(=O)NC(C)(C)C,,"inconclusive: 14.6 µM [cytotoxic, partial curve, poor fit]"
COC(=O)c1cc(NC(=O)c2cc(C(C)(C)C)nn2Cc2cccc(C)c2)ccc1N1CCOCC1,,active: 8.2 µM
Cc1cc(NC(=O)CCC(=O)N(c2ccccc2)C(C(=O)NC2CCCC2)c2ccccc2F)no1 (stereo not drawn),,"inconclusive: 23.1 µM [cytotoxic, partial curve, poor fit]"
CCc1ccc(NC(=O)c2cc3ccccn3n2)cc1,,"inconclusive: 16.4 µM [cytotoxic, partial curve]"
CCN(CCCNC(=O)CNC(=O)c1nn(-c2ccc(OC)cc2)c(=O)c2ccccc12)c1cccc(C)c1,inactive: 13.8%,
Brc1ccc(C[n+]2ccccc2)cc1,,"inconclusive: 16.4 µM [rising, single point]"
COc1ccc(C2C(C(=O)Nc3ccccc3)=C(C)Nc3nc(-c4ccccc4)nn32)cc1OC (stereo not drawn),inactive: 7.32%,
Cc1cc(C)n(-c2nc3ccccc3nc2Nc2cccc(C(F)(F)F)c2)n1,inactive: 7.27%,

SMILES,"activity change, negative = cytotoxicity",Potency
CCc1ccccc1NC(=O)CSC1=C(C#N)C(c2ccc(O)c(OC)c2)C2=C(CCCC2=O)N1 (stereo not drawn),inactive: -13.5%,
C/C(O)=c1/ccc2cccc3nc(C)nc1c23,,"inconclusive: 18.4 µM [cytotoxic, partial curve]"
CCOC(=O)C[C@H]1c2ccc(C(F)(F)F)cc2S(=O)(=O)N1c1ccccc1,,"inconclusive: 32.6 µM [cytotoxic, partial curve, poor fit]"
COc1cccc(CNc2ncnc3onc(-c4ccc(F)cc4)c23)c1,inactive: -8.89%,
O=C(Nc1ccc(O)cc1)c1cc(S(=O)(=O)N2CCCC2)ccc1Cl,,"inconclusive: 18.4 µM [cytotoxic, single point]"
CCOc1cc(/C=N/NC(N)=O)cc(Br)c1OCC(=O)Nc1ccccc1C,,"inconclusive: 18.4 µM [cytotoxic, single point]"
CC(=O)NCCc1nc2ccccc2n1CCCCOc1ccc(Cl)cc1,inactive: -3.92%,
Cc1ccc(N=C2NC(=O)/C(=C/c3cccnc3)S2)c(C)c1,inactive: 2.56%,
CC(=O)Oc1ccc(NC(=O)Cc2ccccc2)c(C(=O)O)c1,,"inconclusive: 25.9 µM [rising, single point]"
O=c1c2ccccc2n(Cc2cccc(Cl)c2)c(=O)n1CCc1ccccc1,,"inconclusive: 13 µM [cytotoxic, single point]"
CC(C)(C)c1ccc(C(=O)NCC(=O)OCC(=O)c2ccc3c(c2)-c2ccccc2C3)cc1,,"inconclusive: 29.1 µM [cytotoxic, single point]"
CCN(CC(=O)NCc1ccc(Cl)cc1)CC(=O)NC1(C#N)CCCC1,inactive: 13.8%,
Cc1ccc(C)c(N2CCN(c3ncnc4onc(C)c34)CC2)c1,,"inconclusive: 3.66 µM [cytotoxic, full curve]"
CCC(NC(=O)Nc1nnc(C(F)(F)F)s1)(C(F)(F)F)C(F)(F)F,,active: 4.11 µM
COc1cccc(/C=N/Nc2nc(Nc3ccc([N+](=O)[O-])cc3)nc(N3CCCC3)n2)c1O,,"inconclusive: 18.4 µM [cytotoxic, single point]"
COc1cccc2cc(-c3nc4sc(C(=O)Nc5ccc(F)cc5F)c(C)c4c(=O)[nH]3)c(=O)oc12,inactive: 17.7%,
CC(C)C[C@@H](CN1CCC[C@H]1CN1C(=O)C(=O)NC[C@@H]1Cc1ccccc1)N1C[C@H](Cc2ccc(O)cc2)N(CCc2ccccc2)C(=O)C1=O,inactive: -18.2%,
COc1ccc(CCN(C)C2CCCN(C(=O)c3sccc3C)C2)cc1OC (stereo not drawn),,"inconclusive: 7.31 µM [cytotoxic, partial curve]"
O=C(NCc1ccncc1)C1Cc2c(-c3ccc(Cl)cc3)ccnc2O1 (stereo not drawn),,"inconclusive: 18.4 µM [cytotoxic, single point]"
Cc1nc2c(sc3nc4c(cc32)COC(C)(C)C4)c(=O)n1Cc1ccccc1,,active: 5.17 µM
COc1ccc(S(=O)(=O)N2CCOCC2)cc1NC(=O)CO/N=C/c1ccccc1OC(F)F,,"inconclusive: 7.31 µM [cytotoxic, partial curve]"
O=C(c1ccccc1)N1CCC(c2nc(-c3ccc(S(=O)(=O)N4CCOCC4)cc3)no2)CC1,,"inconclusive: 29.1 µM [cytotoxic, single point]"

# 3 structures already listed, sorted by length of the SMILES, largest number first:
SMILES,"activity change, negative = cytotoxicity",Potency
O=C(NCc1ccncc1)C1Cc2c(-c3ccc(Cl)cc3)ccnc2O1 (stereo not drawn),,"inconclusive: 18.4 µM [cytotoxic, single point]"
CC(=O)Oc1ccc(NC(=O)Cc2ccccc2)c(C(=O)O)c1,,"inconclusive: 25.9 µM [rising, single point]"
C/C(O)=c1/ccc2cccc3nc(C)nc1c23,,"inconclusive: 18.4 µM [cytotoxic, partial curve]"

# Source: PubChem BioAssay AID1347076 (National Center for Advancing Translational Sciences (NCATS), 2019)
